# Measurements taken from patent US11985974B2, “Antimicrobial ferulic acid derivatives and uses thereof” (WISCONSIN ALUMNI RESEARCH FOUNDATION, priority 2014, dated 2024).
# Test system: S. cerevisiae (BY4741 his3Δ::KanMX)
# Assay: Multivariate morphological analysis (CalMorph)
# Assay type: cell-based, Saccharomyces cerevisiae
# Experimental: Cells of budding yeast S. cerevisiae (BY4741 his3Δ::KanMX; hereafter, his3Δ) were cultured in 2 mL 1% Bacto yeast extract (BD Biosciences), 2% Bacto peptone (BD Biosciences), and 2% glucose (YPD) with 0, 25, 50, 75, 100, or 125 μg/mL poacic acid or a DMSO control at 25° C. for 16 h until the early log phase. The maximum concentration of the drug (125 μg/mL) was determined based on the growth inhibition rates (10%). Cell fixation, staining, and observation were performed (n=5) as described previously (Ohya et al. 2005). Images of cell shape, actin, and nuclear DNA were analyzed using the image processing software CalMorph (version 1.2), which extracted a total of 501 morphological quantitative values from at least 200 individual cells in each experiment (Ohya et al. 2005). Images were processed using Photoshop CS2 (Adobe Systems) for illustrative purposes.
# To assess the morphological similarity between the cells treated with poacic acid and nonessential deletion mutants or cells treated with other cell wall-affecting drugs, their morphological profiles were compared as described previously (Ohnuki et al. 2010). To identify functional gene clusters, the most significant similar mutants (43 genes, P<0.01 after Bonferroni correction, t test) were selected as a query for GO term analysis (GO term finder in the Saccharomyces genome database).
# To extract independent and characteristic features of morphology induced by poacic acid, a two-step principal component analysis was performed as described previously (Ohnuki et al. 2012). To compare phenotypic noise in the yeast population (poacic acid vs. DMSO), the noise score was calculated as described previously (Yvert et al. 2013).
smiles,measurement,setting,value
"COc1cc(/C=C/c2cc(/C=C/C(=O)O)cc(OC)c2O)ccc1O [poacic acid, (E)-4-Hydroxy-3-{2-[(E)-4-hydroxy-3-methoxystyryl]}-5-methoxycinnamic acid]",R value (morphological correlation),vs ALG8 deletion mutant,0.48
same,R value (morphological correlation),vs BNA1 deletion mutant,0.44
same,R value (morphological correlation),vs BNI1 deletion mutant,0.59
same,R value (morphological correlation),vs BUD6 deletion mutant,0.45
same,R value (morphological correlation),vs CAP1 deletion mutant,0.45
same,R value (morphological correlation),vs CAX4 deletion mutant,0.55
same,R value (morphological correlation),vs CLC1 deletion mutant,0.46
same,R value (morphological correlation),vs COG1 deletion mutant,0.61
same,R value (morphological correlation),vs DFG5 deletion mutant,0.52
same,R value (morphological correlation),vs FKS1 deletion mutant,0.59
same,R value (morphological correlation),vs GAS1 deletion mutant,0.58
same,R value (morphological correlation),vs GDT1 deletion mutant,0.47
same,R value (morphological correlation),vs GUP1 deletion mutant,0.51
same,R value (morphological correlation),vs IMP2 deletion mutant,0.46
same,R value (morphological correlation),vs KRE1 deletion mutant,0.53
same,R value (morphological correlation),vs MMS2 deletion mutant,0.46
same,R value (morphological correlation),vs MNN11 deletion mutant,0.55
same,R value (morphological correlation),vs MON2 deletion mutant,0.54
same,R value (morphological correlation),vs NPY1 deletion mutant,0.61
same,R value (morphological correlation),vs OCH1 deletion mutant,0.57
same,R value (morphological correlation),vs OPT2 deletion mutant,0.44
same,R value (morphological correlation),vs OST3 deletion mutant,0.61
same,R value (morphological correlation),vs OST4 deletion mutant,0.61
same,R value (morphological correlation),vs PEA2 deletion mutant,0.45
same,R value (morphological correlation),vs PEP3 deletion mutant,0.46
same,R value (morphological correlation),vs PEP5 deletion mutant,0.46
same,R value (morphological correlation),vs PER1 deletion mutant,0.57
same,R value (morphological correlation),vs POC4 deletion mutant,0.45
same,R value (morphological correlation),vs PPS1 deletion mutant,0.44
same,R value (morphological correlation),vs RHO4 deletion mutant,0.51
same,R value (morphological correlation),vs SNC2 deletion mutant,0.60
same,R value (morphological correlation),vs SUR4 deletion mutant,0.61
same,R value (morphological correlation),vs SWA2 deletion mutant,0.59
same,R value (morphological correlation),vs TPM1 deletion mutant,0.51
same,R value (morphological correlation),vs UME1 deletion mutant,0.47
same,R value (morphological correlation),vs VPS16 deletion mutant,0.45
same,R value (morphological correlation),vs VPS33 deletion mutant,0.45
same,R value (morphological correlation),vs VPS52 deletion mutant,0.48
same,R value (morphological correlation),vs YAL058C-A deletion mutant,0.60
same,R value (morphological correlation),vs YFR016C deletion mutant,0.45
same,R value (morphological correlation),vs YLR111W deletion mutant,0.60
same,R value (morphological correlation),vs YOL013W-A deletion mutant,0.51
same,R value (morphological correlation),vs YPL184C deletion mutant,0.46
